Test results taken from patent US20030108462A1, “Method of extracting contaminants from solid matter” (priority 2001, published 2003).

Columns and labels:
[1] = Chelating-agent leaching of comminuted CCA treated wood, chromium; conditions: initial wood 3380 mg/kg; for Chromium in leachate: LIQUID, leachate from treated wood; for Chromium in processed solids: WOOD after leaching
Experimental: (§1) 32 grams of the comminuted treated wood was used to represent 1 mole of the contaminants, and was reacted with 1000 ml of 0.1 mole ethylenediamine-N,N,N′,N′-tetraacetic acid at a temperature of 70° C. for a period of 6 hours. The sample was agitated and allowed to settle periodically to thoroughly mix the wood and the solution, as well as to facilitate leaching. After the last settling period, the mixture stratified into a green colored supernatant which contained the chelated CCA components in soluble form at the top, and clean looking sawdust at the bottom of the reaction container.
(§2) Upon completion of reaction, the supernatant was decanted and retained. The solid section was allowed to drain freely for 15 minutes, after which 500 ml of fresh water was added and the mixture was periodically mixed and allowed to settle for a period of 30 minutes. Similarly, the mixture stratified into a light green solution and cleaner looking saw dust. The liquid was decanted and added to the previously decanted liquid. The settled solids were wrapped in a 250μ filter paper and subjected to a weight of 6 pounds per square inch and allowed to drain. Upon completion, the drained liquid was added to the previously decanted liquids and sent for laboratory analysis. The retained solids were oven dried and analyzed for the target contaminants.
(§3) 100 grams of the comminuted treated wood was used to represent 1 mole of the contaminants and reacted with 1000 mL of 0.1 mole EDTA disodium solution at 30° C. for 30 hours. The sample was agitated and settled periodically to thoroughly mix the wood and the solution, as well as to facilitate leaching. After the last settling period, the mixture stratified into a green colored supernatant which contained the chelated CCA components in soluble form at the top, and clean looking sawdust at the bottom of the reaction container.
as §2, with “liquid and was sent for analysis.” for “liquid.”
(§4) 100 grams of comminuted treated wood was used to represent 1 mole of contaminants, and reacted with 1000 ml of 0.01 mole of EDTA Free Acid solution at 70° C. for 6 hours. The sample was agitated and allowed to settle periodically to thoroughly mix the wood and the solution, as well as to facilitate leaching. After the last settling period, the mixture stratified into a green colored supernatant which contained the chelated CCA components in soluble form at the top, and clean looking sawdust at the bottom of the reaction container.
as §2, with “retained” for “retained.”, “water with a known quality” for “water”, “liquid and was sent for analysis.” for “liquid.”

[2] = Chelating-agent leaching of comminuted CCA treated wood, copper; conditions: initial wood 1991 mg/kg; for Copper in leachate: LIQUID, leachate from treated wood; for Copper in processed solids: WOOD after leaching
Experimental: as §1, §2, §3
as §2, with “liquid and was sent for analysis.” for “liquid.”
as §4
as §2, with “retained” for “retained.”, “water with a known quality” for “water”, “liquid and was sent for analysis.” for “liquid.”

SMILES | Chromium in leachate [1] | Chromium in processed solids [1] | Copper in leachate [2] | Copper in processed solids [2]
O=C(O)CN(CCN(CC(=O)O)CC(=O)O)CC(=O)O [EXAMPLE 1, ethylenediamine-N,N,N′,N′-tetraacetic acid] | 4.0 mg/L | 525 mg/kg | 79 mg/L | 88.73 mg/kg
O=C([O-])CN(CCN(CC(=O)[O-])CC(=O)O)CC(=O)O.[Na+].[Na+] [EXAMPLE 2, EDTA disodium] | 5.67 mg/L | 309 mg/kg | 69.60 mg/L | 32.83 mg/kg
O=C(O)CN(CCN(CC(=O)O)CC(=O)O)CC(=O)O [EXAMPLE 3, EDTA Free Acid] | 19.60 mg/L | 308 mg/kg | 40 mg/L | 4.88 mg/kg
